Measured values from patent US20050153943A1, “Methods of simultaneously treating mucositis and fungal infection” (priority 2002, published 2005).
At least one compound was matched to its structure with a doubt left.

Test system: 11 different species of fungi
Assay: Summary of Example 40 over the whole panel
Format: cell-based
Details: 11 tested fungi, up to 4.00 μg/ml
Procedure: Each drug was dissolved in DMSO (1.0 mg/ml) as a stock solution and stored at −20° C. Just prior to use, each stock solution was thawed and diluted in DMSO to produce 6 different 100× concentrations. Potato dextrose agar was dissolved in distilled water (39 g/L) and sterilized at […] (250° F.) for 15 min. The agar solution was mixed with each drug (in a water bath at 60° C.) to make a series of final concentrations, i.e. 0.00, 0.25, 0.50, 1.00, 2.00, 4.00 μg/ml. The mixtures were then transferred to 24-well plates (1 ml/well). After the gel had formed, the fungus in PBS (spore count=1-5×10^4/ml) was inoculated by pipetting 10 μl onto each gel. The plates were incubated at 30° C. for different times, depending on the requirement of each species, e.g. 24 hours for Penicillium, Rhizopus, Tricothecium, Ulocladium, Absidia, Aspergilus, Caindida, Cunninghamella, 3 days for Scedosporium, and 5 days for Fonsecae and Phialophora.
“*” indicates better than or similar results to Amphotericin B. “NI” indicates no detectable inhibition.

SMILES: C[C@H]1c2cccc(O)c2C(=O)C2=C(O)[C@]3(O)C(=O)C(C(N)=O)=C(O)[C@@H](N(C)C)[C@@H]3[C@@H](O)[C@@H]21 [Doxycycline, 6α-deoxy-5-hydroxytetracycline, reference compound]
- Antifungal activity over the panel (summary in words): essentially no detectable antifungal activity
